Measurements as given in patent US9952200B2, “Cell based quality control bioassays for nutriceutical and medicinal products” (President and Fellows of Harvard College, priority 2012, dated 2018).
For at least one compound, name, drawing or mass did not settle the structure.

How the values were obtained:
[1] = test system: recombinant eIf2α-S51A; experiment: EPA-induced eIf2α phosphorylation, Western blot with pS51-eIf2α antibodies; format: cell-based, human; details: transgenic PC-3 cells treated with EPA vs vehicle; FIG. 3
[2] = test system: Glucose regulated protein 78 (BiP); details: cancer cells and tumors excised from animal cancer models or human patients; cited from earlier work
[3] = test system: PC-3 cells expressing recombinant eIf2α-WT; experiment: Net cell proliferation by SRB assay; format: cell-based, human; details: increasing concentrations of EPA, five days, percent of vehicle control, FIG. 4
[4] = test system: Maternal PC-3 cells (MAT); experiment: Net cell proliferation by SRB assay; format: cell-based, human; details: increasing concentrations of EPA, five days, FIG. 4
[5] = test system: BRCA1 mRNAb; details: breast cancer cell lines and animal tumors; cited from earlier work
[6] = test system: CHOP; details: cancer cells and tumors excised from animal cancer models or human patients; cited from earlier work
[7] = test system: recombinant eIf2α-WT; experiment: EPA-induced eIf2α phosphorylation, Western blot with pS51-eIf2α antibodies; format: cell-based, human; details: transgenic PC-3 cells treated with EPA vs vehicle; FIG. 3
[8] = test system: PC-3 cells expressing recombinant eIf2α-S51A; experiment: Net cell proliferation by SRB assay; format: cell-based, human; details: increasing concentrations of EPA, five days, percent of vehicle control, FIG. 4
[9] = test system: endogenous eIf2α; experiment: EPA-induced eIf2α phosphorylation, Western blot with pS51-eIf2α antibodies; format: cell-based, human; details: PC-3 cells treated with EPA vs vehicle; FIG. 3

CC/C=C\C/C=C\C/C=C\C/C=C\C/C=C\CCCC(=O)O [EPA, eicosapentaenoic acid]
phosphorylation of recombinant eIf2α-S51A [1]: but not
BiP expression [2]: up-regulated
inhibition of cell proliferation [3]: sensitive
inhibition of cell proliferation [4]: sensitive
translation of BRCA1 mRNAb [5]: increased the translation
CHOP expression [6]: up-regulated
phosphorylation of recombinant eIf2α-WT [7]: caused phosphorylation
inhibition of cell proliferation [8]: resistant
phosphorylation of endogenous eIf2α [9]: caused phosphorylation
